According to publication PMC4686221:
These are yes or no findings as the source states them, for the method shown. In cells and extracts the contact can be indirect.

Sequences of proteins named here, by UniProt entry; tags and fusion partners are left off. A change or cut given only in a name is not applied to a line headed by its entry.
UniProt P48432: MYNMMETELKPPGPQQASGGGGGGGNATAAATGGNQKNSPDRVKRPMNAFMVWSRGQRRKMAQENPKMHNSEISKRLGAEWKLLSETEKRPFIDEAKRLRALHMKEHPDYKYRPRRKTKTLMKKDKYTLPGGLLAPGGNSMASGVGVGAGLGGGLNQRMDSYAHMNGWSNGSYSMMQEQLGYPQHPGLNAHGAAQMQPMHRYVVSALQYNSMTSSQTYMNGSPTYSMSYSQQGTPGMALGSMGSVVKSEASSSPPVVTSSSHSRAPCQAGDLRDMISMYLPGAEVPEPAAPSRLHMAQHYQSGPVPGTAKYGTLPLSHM
UniProt Q9UBL3: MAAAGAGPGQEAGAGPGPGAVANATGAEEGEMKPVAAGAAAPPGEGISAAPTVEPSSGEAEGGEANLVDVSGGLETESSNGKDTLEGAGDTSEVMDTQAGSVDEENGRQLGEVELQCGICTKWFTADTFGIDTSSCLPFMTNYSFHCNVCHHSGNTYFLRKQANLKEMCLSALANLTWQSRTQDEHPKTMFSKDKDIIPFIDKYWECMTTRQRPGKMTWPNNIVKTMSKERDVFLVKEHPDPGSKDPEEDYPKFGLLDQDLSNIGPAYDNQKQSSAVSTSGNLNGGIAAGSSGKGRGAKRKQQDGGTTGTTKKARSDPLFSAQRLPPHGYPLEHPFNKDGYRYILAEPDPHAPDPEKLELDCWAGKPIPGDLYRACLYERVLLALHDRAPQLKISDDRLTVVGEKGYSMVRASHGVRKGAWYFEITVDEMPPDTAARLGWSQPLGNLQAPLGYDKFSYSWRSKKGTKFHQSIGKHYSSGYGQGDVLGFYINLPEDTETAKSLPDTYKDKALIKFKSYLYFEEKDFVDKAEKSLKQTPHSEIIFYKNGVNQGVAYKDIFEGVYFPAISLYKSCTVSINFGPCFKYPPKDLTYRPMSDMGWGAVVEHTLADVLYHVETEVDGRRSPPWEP

Target: FLAG-HA-tagged Sox2 mutant missing the HMG domain (ΔHMG) (mouse) (UniProt P48432)
Assay: co-IP; 293T cells transiently transfected with FLAG-HA-tagged Sox2 truncation mutants; anti-FLAG M2 resin, 4°C overnight, BC150 (150 mM KCl), 0.05% NP40; western blot of endogenous subunits

- binding: no binding
Substance: endogenous Ash2l (293 and 293T cells) (from UniProt Q9UBL3 1-628)
